The chains behind the UniProt entries cited, without tags or fusion partners. Where a name states a change or a piece, a line headed by the entry shows the natural chain unless it says otherwise.
UniProt P69720: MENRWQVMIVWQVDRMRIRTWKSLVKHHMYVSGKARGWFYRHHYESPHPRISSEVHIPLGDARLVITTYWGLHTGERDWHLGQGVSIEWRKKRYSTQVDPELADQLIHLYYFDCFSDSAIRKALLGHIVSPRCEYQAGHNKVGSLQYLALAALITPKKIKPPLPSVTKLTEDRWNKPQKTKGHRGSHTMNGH
UniProt P69721: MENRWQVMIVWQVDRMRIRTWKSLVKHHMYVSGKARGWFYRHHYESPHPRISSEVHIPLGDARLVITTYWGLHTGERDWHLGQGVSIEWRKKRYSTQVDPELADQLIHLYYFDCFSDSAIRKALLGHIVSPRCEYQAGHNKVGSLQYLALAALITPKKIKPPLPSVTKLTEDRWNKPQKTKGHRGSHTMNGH
UniProt P69722: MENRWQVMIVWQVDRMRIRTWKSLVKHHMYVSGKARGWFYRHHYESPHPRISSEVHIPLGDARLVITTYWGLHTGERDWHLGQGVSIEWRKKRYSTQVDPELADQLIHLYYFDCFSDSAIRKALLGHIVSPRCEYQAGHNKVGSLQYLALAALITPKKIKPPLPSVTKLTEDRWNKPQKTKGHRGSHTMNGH
UniProt P69723: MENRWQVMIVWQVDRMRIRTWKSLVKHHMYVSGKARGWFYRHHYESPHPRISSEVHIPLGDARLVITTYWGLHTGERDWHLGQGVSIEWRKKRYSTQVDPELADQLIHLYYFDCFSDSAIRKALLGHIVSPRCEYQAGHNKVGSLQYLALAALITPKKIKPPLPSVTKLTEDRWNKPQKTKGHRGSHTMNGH
UniProt Q9HC16: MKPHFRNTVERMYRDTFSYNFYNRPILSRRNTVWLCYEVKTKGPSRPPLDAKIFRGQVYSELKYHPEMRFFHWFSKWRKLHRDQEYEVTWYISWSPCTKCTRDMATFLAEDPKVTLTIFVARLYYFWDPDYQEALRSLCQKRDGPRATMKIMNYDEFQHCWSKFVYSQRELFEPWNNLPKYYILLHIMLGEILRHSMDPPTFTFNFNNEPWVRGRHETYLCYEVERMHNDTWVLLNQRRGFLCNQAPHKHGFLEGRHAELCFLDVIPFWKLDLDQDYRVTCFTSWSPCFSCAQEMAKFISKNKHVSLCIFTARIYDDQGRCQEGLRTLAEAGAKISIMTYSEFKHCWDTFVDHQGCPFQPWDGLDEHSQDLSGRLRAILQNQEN

Where “and” joins values, the source holds several entries; their conditions need not be identical. Identical values can stand only once. About 1,500 (0.58%) of roughly 260,000 compounds were called active.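 Rule for the calls: active = inhibition above a set limit at one or more doses, reproduced on every date tested; inconclusive = results disagree between test dates, or hit never tested in dose response; inactive = the rest.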 Inconclusive results, whose numbers are uncertain, are shown.
Each compound was assayed against Virion infectivity factor (Human immunodeficiency virus type 1 group M subtype B (isolate BH10)) + Virion infectivity factor (Human immunodeficiency virus type 1 group M subtype B (isolate BRU/LAI)) + Virion infectivity factor (Human immunodeficiency virus type 1 group M subtype B (isolate PCV12)) + Virion infectivity factor (Human immunodeficiency virus type 1 group M subtype B (isolate HXB2)) + DNA dC->dU-editing enzyme APOBEC-3G (Homo sapiens) (UniProt P69720+P69721+P69722+P69723+Q9HC16) (assay: inhibitors of Vif binding to APOBEC3G peptide, primary screen, biochemical, TR-FRET, GST-Vif 1-94, biotin-A3G peptide, dose response retest (AID 1117319;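 note: Vif residues 1-94 fused to GST binding biotinylated APOBEC3G peptide 110-148; 0% = full assay without inhibitor and 100% = GST in place of GST-Vif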)). Conditions: active compounds read high.
In the case of O=C(CF)NC(Nc1cccc2cccnc12)C(Cl)(Cl)Cl (configuration not stated), the inhibition is reported as inconclusive: 53.8%. NCCc1c[nH]c2ccc(OCc3ccccc3)cc12 was tested, and the inhibition was inconclusive: 53.2%. For O[C@H]1[C@H](O)[C@@H](O)CN2CC[C@H](O)[C@H]12, the inhibition was inconclusive: 35.3%. For COc1ccc(C(=O)CN2CCCCC2)cc1, the inhibition was inconclusive: 52.6%. In the case of CN1C(=O)C(=Cc2ccc(-c3cccc(Cl)c3)o2)C(=O)N(C)C1=O, the inhibition is reported as inconclusive: 39.3%. For O=C(CN1CCOCC1)c1cccc2ccccc12, the inhibition was inconclusive: 35.6%. With CCCCCSc1cc(OC)c(CCN(C)C)cc1OC the inhibition was inconclusive: 54.3%. In the case of Cc1cc(/C=C2/C(=O)NC(=O)N(Cc3ccco3)C2=O)c(C)n1-c1ccc(C(=O)O)cc1, the inhibition is reported as inconclusive: 38.2%. For CCOC(=O)c1cc(CC)sc1/N=C/c1c(O)[nH]c(=S)[nH]c1=O, the inhibition was inconclusive: 48.3%. For CN1CCN(Cc2nc3ccccc3c(=O)[nH]2)CC1, the inhibition was inconclusive: 54.2%. For Cc1cccc(-n2c(-c3cccs3)nc3ccccc3c2=O)c1, the inhibition was inconclusive: 38.5%. With O=P1(Nc2ccc(F)cc2)COc2ccccc2OC1 the inhibition was inconclusive: 43.3%. In the case of O=c1[nH]c(=O)n(Cc2ccc(F)cc2)c(O)c1C=NCCCO, the inhibition is reported as inconclusive: 43.4%. With Cc1sc2c(c1C)C(c1ccc(C(C)(C)C)cc1)=NCC(=O)N2CC(=O)Nc1nccs1 the inhibition was inconclusive: 38.3%. For Cc1cc(/C=C2/C(=O)NC(=O)N(Cc3ccco3)C2=O)c(C)n1-c1ccccc1O, the inhibition was inconclusive: 48.9%. COc1ccc(NC(=O)c2cn(CCC#N)nc2-c2cccc([N+](=O)[O-])c2)cc1 was tested, and the inhibition was inconclusive: 40.7%. For NCC(CC(=O)O)c1ccc(Cl)cc1 (configuration not stated), the inhibition was inconclusive: 51.4%. For C/C(=N\NC(=O)c1ccccc1O)c1c(O)n(Cc2ccccc2)c(=O)[nH]c1=O, the inhibition was inconclusive: 53.5%. For O=c1c2ccccc2[se]n1-c1ccccc1, the inhibition was inconclusive: 51%. For CCCCN1C(=O)NC(=O)C2(Cc3c(nc4ccccn4c3=O)N3CCc4ccccc4C32)C1=O (configuration not stated), the inhibition was inconclusive: 48.2%. In the case of CCN(CC)CCNCc1nc2ccccc2c(=O)n1-c1ccc(F)cc1, the inhibition is reported as inconclusive: 36.6%. Cc1ccc(N2C(=O)NC(=O)/C(=C\c3ccc([N+](=O)[O-])o3)C2=O)cc1 was tested, and the inhibition was inconclusive: 59%. In the case of O=c1[nH]c(=O)n(C2CCCCCC2)c(O)c1C=NCC1CCCO1 (configuration not stated), the inhibition is reported as inconclusive: 25.3%. COC(=O)C1=Nc2ccccc2/C1=C\c1c(O)n(-c2ccc(Br)cc2)c(=O)[nH]c1=O was tested, and the inhibition was inconclusive: 46.9%. With Cc1cccc(N2C(=O)NC(=O)/C(=C\C=C\c3ccco3)C2=O)c1 the inhibition was inconclusive: 64.7%. In the case of O=C1CN=C(c2cccs2)c2c(sc3c2CCCC3)N1, the inhibition is reported as inconclusive: 33.7%. In the case of CS(=O)(=O)NNP(=O)(NNS(C)(=O)=O)NC(=O)c1ccc(Br)cc1, the inhibition is reported as inconclusive: 41.8%. With CC(C)C/C(=N/O)c1cn(C)c2ccccc12 the inhibition was inconclusive: 39.6%. COc1ccc(-c2n(-c3ccccn3)c3ccccc3[n+]2-c2ccccn2)cc1 was tested, and the inhibition was inconclusive: 38.2%. For Cc1cc(C=C2C(=O)NC(=O)NC2=O)c(C)n1-c1ccc2c(c1)OCO2, the inhibition was inconclusive: 45.8%. In the case of CCCC/C(=N\O)c1c[nH]c2ccccc12, the inhibition is reported as inconclusive: 36%. Cc1cc(N(CCCl)CCCl)ccc1/C=N/NC(=O)c1ccco1 was tested, and the inhibition was inconclusive: 44.8%. CCOP(=S)(OCC)Oc1cc(C)oc(=O)c1 was tested, and the inhibition was inconclusive: 52.1%. In the case of CCOc1ccc2nc(N=Nc3c(O)[nH]c(=O)[nH]c3=O)sc2c1, the inhibition is reported as inconclusive: 33.6%. With CCCCCSc1cc(OC)c(CCN)cc1OC the inhibition was inconclusive: 49.8%. In the case of CN1C(=O)NC(=O)/C(=C\c2ccc([N+](=O)[O-])o2)C1=O, the inhibition is reported as inconclusive: 43.8%. COCCCn1c(N)c(C(=O)NCCC(C)C)c2nc3ccccc3nc21 was tested, and the inhibition was inconclusive: 34.4%. For O=C1NC(=O)N(c2ccc3c(c2)OCO3)C(=O)/C1=C\c1ccc(-c2ccccc2C(=O)O)o1, the inhibition was inconclusive: 39%. In the case of CC(C)C[C@H]1C(=O)N2CCCC2[C@]2(O)O[C@](NC(=O)[C@@H]3C=C4c5cccc6[nH]cc(c56)CC4N(C)C3)(C(C)C)C(=O)N12 (some centres not stated), the inhibition is reported as inconclusive: 59.5%. With C=CCSc1nc2c(c(-c3ccsc3)c1C#N)CN(C)CC2 the inhibition was inconclusive: 38.7%. For O=CC(Cl)P(=O)(N1CCCCC1)N1CCCCC1 (configuration not stated), the inhibition was inconclusive: 33.8%. With Cc1cc(C=O)c(C)n1CC1CCCO1 (configuration not stated) the inhibition was inconclusive: 52.4%. For Cc1ccc(C(c2nnnn2Cc2ccccc2)N2CC=C(c3ccc(F)cc3)CC2)cc1 (configuration not stated), the inhibition was inconclusive: 60.5%. With CSc1ncc(/C=C2/C(=O)NC(=O)N(c3ccc(Cl)cc3)C2=O)cn1 the inhibition was inconclusive: 64.8%. O=c1[nH]c(=S)n(-c2ccccc2F)c(O)c1C=NCc1ccco1 was tested, and the inhibition was inconclusive: 46.4%. CCOC(=O)c1c(N)n(Cc2ccco2)c2nc3ccccc3nc12 was tested, and the inhibition was inconclusive: 50.4%. For CC(=O)N1CCC2(CC1)CC(=O)c1cc(OCC(=O)N3CCN(C)CC3)ccc1O2, the inhibition was inconclusive: 50.9%. With O=C1CCCN1C(=O)c1cncc(Br)c1 the inhibition was inconclusive: 54.8%. In the case of Cc1cccc(CNCCc2ccccc2)n1, the inhibition is reported as inconclusive: 44%. In the case of Cc1ccccc1-n1c(O)c(/C=N/NC(=O)c2ccccc2O)c(=O)[nH]c1=S, the inhibition is reported as inconclusive: 34.9%. For O=c1[nH]c(=O)n(CC2CCCO2)c(O)c1/C=C1\C=Nc2ccccc21 (configuration not stated), the inhibition was inconclusive: 44.5% and inconclusive: 40.2%. In the case of CN(C)c1ccc(N=Cc2c(O)n(CCC3=CCCCC3)c(=O)[nH]c2=O)cc1, the inhibition is reported as inconclusive: 37.6%. In the case of Cc1cccc(OCC(=O)N2CCN(Cc3ccncc3)CC2)c1, the inhibition is reported as inconclusive: 40.4%. For CC1CCN2c3nc4ccccn4c(=O)c3CC3(C(=O)N(C)C(=O)N(C)C3=O)C2C1 (configuration not stated), the inhibition was inconclusive: 38%. With CC(=O)N1CN2CN(C(C)=O)CC(C(=O)c3ccc([N+](=O)[O-])cc3)(C2)C1 the inhibition was inconclusive: 60.2%. With CNC(=O)Nc1ccc(C(O)(C(=O)OC)C(F)(F)F)cc1 (configuration not stated) the inhibition was inconclusive: 47%. For O=CC(Br)P(=O)(N1CCOCC1)N1CCOCC1 (configuration not stated), the inhibition was inconclusive: 43.8%. CC1CN=C(NCc2ccccc2)S1 (configuration not stated) was tested, and the inhibition was inconclusive: 33.5%. For Cc1ccnc(-n2c(C)cc(/C=C3\C(=O)NC(=S)N(C)C3=O)c2C)c1, the inhibition was inconclusive: 35.4%. With COc1ccccc1OCC#CCN1CCCCCC1 the inhibition was inconclusive: 38.3%. In the case of CC1(C)C(c2ccccc2)=NC(c2cccnc2)=[N+]1[O-], the inhibition is reported as inconclusive: 39%. In the case of CCCN(CC#CCOc1ccc(OC)cc1)CCC, the inhibition is reported as inconclusive: 38.3%. For CCN1CCN(c2ccc(N)c(C)c2)CC1, the inhibition was inconclusive: 42.4%. For COC(=O)C(O)(c1c(C)[nH]n(-c2ccccc2)c1=O)C(F)(F)F (configuration not stated), the inhibition was inconclusive: 41.9%. With COc1ccc(N=Cc2c(O)n(Cc3cccs3)c(=O)[nH]c2=O)cc1 the inhibition was inconclusive: 42.5%. With CN1c2ccc([N+](=O)[O-])cc2CC2(C(=O)NC(=O)NC2=O)C1c1ccccc1 (configuration not stated) the inhibition was inconclusive: 62.8%. In the case of C=C1C/C(=C/C)C(=O)O[C@@H]2CCN3CC=C(COC(=O)[C@]1(C)O)[C@H]23, the inhibition is reported as inconclusive: 45.5%. For Cn1c(=O)cc(SCC(=O)N2CCC3(CC2)OCCO3)c2ccccc21, the inhibition was inconclusive: 44.9%. In the case of O=c1cccc2n1CC1CC2CN(C(c2ccccc2)c2sc3ncnn3c2O)C1 (configuration not stated), the inhibition is reported as inconclusive: 56%. For C=CCn1c(O)c(/C(C)=N/N2CCCCCC2)c(=O)[nH]c1=O, the inhibition was inconclusive: 42.7%. With Oc1c(Br)cc(Br)cc1Oc1ccc(Br)cc1Br the inhibition was inconclusive: 38.8%. C/C(=C/C=C/[C@@H](C)C(=O)O)[C@H]1CN[C@H](C(=O)O)[C@H]1CC(=O)O was tested, and the inhibition was inconclusive: 45.8%. With O=C(O)C1CN2CCC1CC2 (configuration not stated) the inhibition was inconclusive: 56.6%. In the case of CCN(CC)c1ccc(/C=C2/C(=O)NC(=O)N(Cc3ccco3)C2=O)cc1, the inhibition is reported as inconclusive: 60.3%. Cc1cc(/C=C2\C(=O)NC(=O)N(Cc3ccco3)C2=O)c(C)n1-c1ccc(C(=O)O)cc1 was tested, and the inhibition was inconclusive: 52.1%. With C[N+]1(C)C2CCC1CC(OC(=O)c1ccco1)C2 (configuration not stated) the inhibition was inconclusive: 34.4%. With C[C@H]1O[C@@H](O[C@H]2[C@@H](O)C[C@H](O[C@H]3[C@@H](O)C[C@H](O[C@H]4CC[C@@]5(C)[C@H](CC[C@@H]6[C@@H]5CC[C@]5(C)[C@@H](C7=CC(=O)OC7)CC[C@]65O)C4)O[C@@H]3C)O[C@@H]2C)C[C@H](O)[C@@H]1O the inhibition was inconclusive: 36.1%. CC(c1ccccc1)(c1ccccc1)c1ccncc1 was tested, and the inhibition was inconclusive: 46.1%. In the case of COCCN1C(=O)NC(=O)/C(=C\c2ccc(F)cc2)C1=O, the inhibition is reported as inconclusive: 43.3%. In the case of Cc1ccsc1C(=O)C1CCCN(Cc2cccc(OCCO)c2)C1 (configuration not stated), the inhibition is reported as inconclusive: 33.9%. In the case of CCc1ccc(CN2CCN(C(=O)Cc3ccccc3)CC2)cc1, the inhibition is reported as inconclusive: 51.1%. In the case of O=C1NC(=O)C(=Cc2ccc(N3CCOCC3)o2)C(=O)N1, the inhibition is reported as inconclusive: 34.1%. In the case of C=C1CC[C@@]2(O)[C@H]3Cc4ccc(O)c5c4[C@@]2(CCN3CC2CC2)[C@H]1O5, the inhibition is reported as inconclusive: 41.9%. With Cc1ccc(/C=C2/C(=O)NC(=O)N(C)C2=O)cc1 the inhibition was inconclusive: 45.1%. In the case of c1ccc2c3c([nH]c2c1)C1(CCNCC1)NCC3, the inhibition is reported as inconclusive: 44.7%. For Cc1nc2ccccn2c1P(=S)(N1CCCCC1)N1CCCCC1, the inhibition was inconclusive: 52.5%. For CC(=O)OC1C2CCCC1C(N1CCCC1)CC2 (configuration not stated), the inhibition was inconclusive: 50.4%.

From PubChem BioAssay AID1117319 (Southern Research Institute, 2015)
